No constants are given. Whether binding was seen depends on the method and setting. For part of these data: Binding seen in cells or lysates may run through a third protein. Some results given as binding are weak or reduced against the parent protein; the word gives no strength.
What was measured:
[1] = biological target: Myc-RhoC (N-terminal Myc epitope-tagged full-length human RhoC) (human) (UniProt P08134); experiment: anti-Flag immunoprecipitation, Western blot (FIG. 4, panel B)
[2] = biological target: Myc-RhoC (N-terminal Myc epitope-tagged full-length human RhoC) (human) (UniProt P08134); experiment: anti-Flag M2 co-immunoprecipitation from transfected PC3 cells, Western blot
[3] = biological target: Myc-RhoC (N-terminal Myc epitope-tagged full-length human RhoC) (human) (UniProt P08134); experiment: anti-Flag M2 co-immunoprecipitation from transfected HEK293T cells, Western blot

Amino acid sequences for entries named in this document (tags omitted). A change or cut given only in a name is not applied to a line headed by its entry.
UniProt P08134: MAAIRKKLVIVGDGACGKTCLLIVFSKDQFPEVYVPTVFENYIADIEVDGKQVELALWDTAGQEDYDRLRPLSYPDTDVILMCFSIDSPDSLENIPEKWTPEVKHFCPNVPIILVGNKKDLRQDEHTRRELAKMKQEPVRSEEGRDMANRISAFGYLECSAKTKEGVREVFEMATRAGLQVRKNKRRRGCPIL
UniProt Q6P5Z2: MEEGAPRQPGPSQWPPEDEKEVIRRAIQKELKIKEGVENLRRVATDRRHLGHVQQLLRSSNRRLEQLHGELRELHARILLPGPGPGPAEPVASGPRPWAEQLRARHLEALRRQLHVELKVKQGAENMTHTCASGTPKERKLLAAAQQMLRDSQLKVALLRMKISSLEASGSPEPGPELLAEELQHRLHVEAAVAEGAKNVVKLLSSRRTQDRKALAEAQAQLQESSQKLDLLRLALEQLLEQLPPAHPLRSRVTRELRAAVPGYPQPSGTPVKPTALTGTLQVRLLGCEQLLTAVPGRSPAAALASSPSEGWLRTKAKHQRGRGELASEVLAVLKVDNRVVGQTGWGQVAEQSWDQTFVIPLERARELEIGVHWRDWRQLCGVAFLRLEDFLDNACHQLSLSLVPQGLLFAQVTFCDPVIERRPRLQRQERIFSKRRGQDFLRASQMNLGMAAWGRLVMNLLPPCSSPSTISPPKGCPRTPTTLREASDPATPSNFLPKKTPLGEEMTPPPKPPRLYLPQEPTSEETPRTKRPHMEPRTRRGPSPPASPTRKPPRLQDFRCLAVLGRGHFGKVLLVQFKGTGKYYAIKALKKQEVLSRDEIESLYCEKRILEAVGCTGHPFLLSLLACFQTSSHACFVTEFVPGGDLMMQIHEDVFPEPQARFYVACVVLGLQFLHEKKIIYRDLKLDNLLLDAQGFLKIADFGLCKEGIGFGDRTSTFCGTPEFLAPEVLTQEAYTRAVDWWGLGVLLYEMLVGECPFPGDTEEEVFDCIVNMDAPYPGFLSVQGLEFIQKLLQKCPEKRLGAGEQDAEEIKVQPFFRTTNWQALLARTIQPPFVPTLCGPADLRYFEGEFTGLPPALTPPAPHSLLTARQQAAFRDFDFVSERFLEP

binding [1]: binds
binding [2]: binds
binding [3]: binds
Substance: Flag-PKN3 wt (N-terminal Flag epitope-tagged full-length kinase active human PKN3) (from UniProt Q6P5Z2 1-889) (enzyme)

Source: US20120100561A1
